# These are yes or no findings as the source states them, for the method shown. In cells and extracts the contact can be indirect. A yes stands for co-enrichment or nearness to the bait. Other partners may have been found. Where a sequence is shown, tags or fusion partners need not be part of it.
# The chains behind the UniProt entries cited, without tags or fusion partners.
# UniProt A0AVF1: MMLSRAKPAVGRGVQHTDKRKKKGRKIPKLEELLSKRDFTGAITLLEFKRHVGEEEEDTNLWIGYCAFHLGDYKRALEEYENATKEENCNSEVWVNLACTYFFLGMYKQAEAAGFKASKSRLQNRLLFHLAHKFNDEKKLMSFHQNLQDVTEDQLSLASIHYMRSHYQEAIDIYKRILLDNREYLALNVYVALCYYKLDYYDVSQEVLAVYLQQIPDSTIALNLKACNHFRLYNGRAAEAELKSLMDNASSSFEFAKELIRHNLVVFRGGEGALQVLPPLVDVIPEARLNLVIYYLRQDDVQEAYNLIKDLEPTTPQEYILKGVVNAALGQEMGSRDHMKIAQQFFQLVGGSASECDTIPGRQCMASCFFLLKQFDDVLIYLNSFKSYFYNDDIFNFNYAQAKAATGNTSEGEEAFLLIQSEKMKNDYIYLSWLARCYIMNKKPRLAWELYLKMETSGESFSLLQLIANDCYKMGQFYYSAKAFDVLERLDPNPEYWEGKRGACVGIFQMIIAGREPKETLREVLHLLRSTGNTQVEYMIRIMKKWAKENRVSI
# T1: GFP-tagged CCDC92 (mouse) (UniProt Q8VDN4)
# T1 sequence: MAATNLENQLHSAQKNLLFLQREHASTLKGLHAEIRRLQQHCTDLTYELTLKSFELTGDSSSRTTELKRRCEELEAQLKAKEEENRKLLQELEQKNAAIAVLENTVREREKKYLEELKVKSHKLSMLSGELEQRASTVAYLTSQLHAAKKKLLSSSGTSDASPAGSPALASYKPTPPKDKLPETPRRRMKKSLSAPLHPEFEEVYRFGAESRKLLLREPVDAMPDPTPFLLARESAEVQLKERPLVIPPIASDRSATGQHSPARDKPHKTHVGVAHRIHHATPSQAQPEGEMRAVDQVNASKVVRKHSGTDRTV
# B1: IFT81 (endogenous, HEK293T) (protein, UniProt Q8WYA0 1-676)
# chain: MSDQIKFIMDSLNKEPFRKNYNLITFDSLEPMQLLQVLSDVLAEIDPKQLVDIREEMPEQTAKRMLSLLGILKYKPSGNATDMSTFRQGLVIGSKPVIYPVLHWLLQRTNELKKRAYLARFLIKLEVPSEFLQDETVADTNKQYEELMEAFKTLHKEYEQLKISGFSTAEIRKDISAMEEEKDQLIKRVEHLKKRVETAQNHQWMLKIARQLRVEKEREEYLAQQKQEQKNQLFHAVQRLQRVQNQLKSMRQAAADAKPESLMKRLEEEIKFNLYMVTEKFPKELENKKKELHFLQKVVSEPAMGHSDLLELESKINEINTEINQLIEKKMMRNEPIEGKLSLYRQQASIISRKKEAKAEELQEAKEKLASLEREASVKRNQTREFDGTEVLKGDEFKRYVNKLRSKSTVFKKKHQIIAELKAEFGLLQRTEELLKQRHENIQQQLQTMEEKKGISGYSYTQEELERVSALKSEVDEMKGRTLDDMSEMVKKLYSLVSEKKSALASVIKELRQLRQKYQELTQECDEKKSQYDSCAAGLESNRSKLEQEVRRLREECLQEESRYHYTNCMIKNLEVQLRRATDEMKAYISSDQQEKRKAIREQYTKNTAEQENLGKKLREKQKVIRESHGPNMKQAKMWRDLEQLMECKKQCFLKQQSQTSIGQVIQEGGEDRLIL
# B2: IFT46 (endogenous, HEK293T) (protein, UniProt Q9NQC8 1-304)
# chain: MADNSSDECEEENNKEKKKTSQLTPQRGFSENEDDDDDDDDSSETDSDSDDDDEEHGAPLEGAYDPADYEHLPVSAEIKELFQYISRYTPQLIDLDHKLKPFIPDFIPAVGDIDAFLKVPRPDGKPDNLGLLVLDEPSTKQSDPTVLSLWLTENSKQHNITQHMKVKSLEDAEKNPKAIDTWIESISELHRSKPPATVHYTRPMPDIDTLMQEWSPEFEELLGKVSLPTAEIDCSLAEYIDMICAILDIPVYKSRIQSLHLLFSLYSEFKNSQHFKALAEGKKAFTPSSNSTSQAGDMETLTFS
# Biological target: T1, GFP-tagged CCDC92 (mouse)
# Experiment: affinity purification with mass spectrometry; GFP-CCDC92 expressed in HEK293T cells, immunoprecipitated with GFP nanobody-coated agarose beads, on-bead digestion; hits compared with a GFP sample
row,binding,Molecule
1,binds,"IFT56 (endogenous, HEK293T) (from UniProt A0AVF1 1-554)"
2,binds,B1
3,binds,B2

# Reference: publication PMC12802938
